# Literature values as cited in US20060205793A1, “Flupirtine preparation for the treatment of neurodegenerative diseases of the visual apparatus and diabetes mellitus” (priority 2003, published 2006).
# At least one compound was matched to its structure with a doubt left.
# Tested on: Bcl-2
# Details: cells treated with flupirtine; from DE 196 25 582 A1
compound,measurement,value
CCOC(=O)Nc1ccc(NCc2ccc(F)cc2)nc1N [flupirtine],pattern of staining with antibodies to Bcl-2 (Bcl-2 expression),markedly more intense pattern of staining with antibodies to Bcl-2
